One substance from PMC10750294 can be followed below.

Sequences of proteins named here, by UniProt entry; tags and fusion partners are left off.
UniProt P06748: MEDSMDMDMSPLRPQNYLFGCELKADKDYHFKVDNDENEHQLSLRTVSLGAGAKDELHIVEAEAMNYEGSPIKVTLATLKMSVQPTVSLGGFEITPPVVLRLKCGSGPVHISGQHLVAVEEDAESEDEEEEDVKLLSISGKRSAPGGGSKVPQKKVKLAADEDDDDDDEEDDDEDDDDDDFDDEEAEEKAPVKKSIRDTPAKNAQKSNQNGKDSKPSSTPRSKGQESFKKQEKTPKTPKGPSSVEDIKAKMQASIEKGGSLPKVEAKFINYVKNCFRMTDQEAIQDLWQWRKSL

The assay deals with T1, Mesencephalic astrocyte-derived neurotrophic factor (MANF) (human (endogenous in villi tissue of patients)) (UniProt P55145).
T1 sequence: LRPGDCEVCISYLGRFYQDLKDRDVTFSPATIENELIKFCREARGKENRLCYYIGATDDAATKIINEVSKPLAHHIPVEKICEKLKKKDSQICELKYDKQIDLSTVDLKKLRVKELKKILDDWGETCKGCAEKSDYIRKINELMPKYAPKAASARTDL
Put plainly: affinity purification with mass spectrometry; co-IP with the MANF antibody from villi of the URM group, SDS-PAGE, rapid silver staining, excised bands analysed by LC-MS/MS.

No constants are given. Whether binding was seen depends on the method and setting. Binding seen in cells or lysates may run through a third protein. Here binding means that the protein was enriched with, or labelled near, the bait; the list need not be complete.

As for “Nucleophosmin 1 (NPM1) (from UniProt P06748 1-294)”, the binding entry was “binds”.
